These are yes or no findings as the source states them, for the method shown. In cells and extracts the contact can be indirect. Binding can be weak; no strength is given.
Molecular target: RB1 with the CK1ε phosphorylation sites S508/T510/S513 mutated (UniProt P06400)
Test: co-IP; in cells; lysis in EBC buffer (50 mM Tris-HCl pH 7.4, 120 mM NaCl, 0.5% NP-40), 1000 μg lysate protein with antibody-conjugated protein A/G beads or HA-/Flag-agarose beads at 4 °C, washed four times with NETN buffer, immunoblot; with or without ribociclib (Fig. 2i)

Chains of the proteins cited; added tags and fusions are not shown. Lines headed by an entry give the natural chain unless they say otherwise; changes in a name come on top.
UniProt P06400: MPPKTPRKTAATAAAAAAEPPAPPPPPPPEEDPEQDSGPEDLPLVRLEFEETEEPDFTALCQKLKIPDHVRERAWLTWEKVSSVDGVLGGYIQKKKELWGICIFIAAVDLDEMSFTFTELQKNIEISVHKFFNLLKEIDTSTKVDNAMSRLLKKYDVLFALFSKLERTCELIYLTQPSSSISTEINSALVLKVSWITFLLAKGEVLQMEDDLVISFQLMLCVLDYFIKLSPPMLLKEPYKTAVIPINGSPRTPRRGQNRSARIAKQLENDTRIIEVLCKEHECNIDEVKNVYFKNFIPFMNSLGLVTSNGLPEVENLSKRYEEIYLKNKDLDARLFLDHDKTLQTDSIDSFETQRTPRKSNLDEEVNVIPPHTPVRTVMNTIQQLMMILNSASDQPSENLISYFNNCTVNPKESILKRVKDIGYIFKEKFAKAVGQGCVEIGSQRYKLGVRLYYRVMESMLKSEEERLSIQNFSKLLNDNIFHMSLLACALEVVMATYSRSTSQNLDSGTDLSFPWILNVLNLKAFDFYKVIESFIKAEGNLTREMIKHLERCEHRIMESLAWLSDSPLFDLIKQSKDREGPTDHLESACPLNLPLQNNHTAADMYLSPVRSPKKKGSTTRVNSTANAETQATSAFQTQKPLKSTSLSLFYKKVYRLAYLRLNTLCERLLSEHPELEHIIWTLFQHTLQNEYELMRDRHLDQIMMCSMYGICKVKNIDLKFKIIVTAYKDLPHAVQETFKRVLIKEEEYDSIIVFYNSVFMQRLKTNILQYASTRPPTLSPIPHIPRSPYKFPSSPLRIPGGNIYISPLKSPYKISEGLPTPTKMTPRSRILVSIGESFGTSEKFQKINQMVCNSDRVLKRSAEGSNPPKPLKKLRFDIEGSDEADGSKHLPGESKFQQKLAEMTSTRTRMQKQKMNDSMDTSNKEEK
UniProt Q9Y297: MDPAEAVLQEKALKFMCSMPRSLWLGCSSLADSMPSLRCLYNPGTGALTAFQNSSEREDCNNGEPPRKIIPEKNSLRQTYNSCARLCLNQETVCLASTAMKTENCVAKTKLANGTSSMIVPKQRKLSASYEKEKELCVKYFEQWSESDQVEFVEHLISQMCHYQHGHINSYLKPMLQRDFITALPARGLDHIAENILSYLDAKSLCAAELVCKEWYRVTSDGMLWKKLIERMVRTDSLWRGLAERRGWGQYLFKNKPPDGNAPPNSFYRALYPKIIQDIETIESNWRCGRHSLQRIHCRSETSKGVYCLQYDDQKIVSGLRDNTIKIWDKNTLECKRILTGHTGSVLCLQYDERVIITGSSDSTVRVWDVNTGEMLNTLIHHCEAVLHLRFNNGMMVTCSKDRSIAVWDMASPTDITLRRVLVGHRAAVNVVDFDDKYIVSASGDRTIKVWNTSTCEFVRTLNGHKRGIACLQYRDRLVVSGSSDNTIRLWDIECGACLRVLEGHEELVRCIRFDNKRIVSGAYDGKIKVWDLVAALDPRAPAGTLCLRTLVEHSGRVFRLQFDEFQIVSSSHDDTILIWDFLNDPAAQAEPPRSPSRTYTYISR

binding: binds
Substance: βTrCP1 (co-immunoprecipitation in cells) (from UniProt Q9Y297 1-605)

Reference: paper PMC8433397
